According to PMC7819943, “Rice protein-binding microarrays: a tool to detect cis-acting elements near promoter regions in rice”:
The list shows a part of the results.

target: T1, OsSMF1 (Oryza sativa, UniProt Q6ZLB0 1-436); assay: protein-binding microarray (RPBM); PBS, 2% BSA, 51.3 ng/ul salmon testes DNA, 50 uM zinc acetate, 200 nM TF, 25 C, 1 h; high values mean tight binding; details: protein: recombinant; tags: N-terminal polyhistidine and DsRed monomer fusion (pET32a); chain copies: 2; label: CyDye5-dUTP incorporated in the synthesized complementary strand; 3' TTTTT single-stranded linker to array surface; dsDNA, one strand shown
T1 sequence: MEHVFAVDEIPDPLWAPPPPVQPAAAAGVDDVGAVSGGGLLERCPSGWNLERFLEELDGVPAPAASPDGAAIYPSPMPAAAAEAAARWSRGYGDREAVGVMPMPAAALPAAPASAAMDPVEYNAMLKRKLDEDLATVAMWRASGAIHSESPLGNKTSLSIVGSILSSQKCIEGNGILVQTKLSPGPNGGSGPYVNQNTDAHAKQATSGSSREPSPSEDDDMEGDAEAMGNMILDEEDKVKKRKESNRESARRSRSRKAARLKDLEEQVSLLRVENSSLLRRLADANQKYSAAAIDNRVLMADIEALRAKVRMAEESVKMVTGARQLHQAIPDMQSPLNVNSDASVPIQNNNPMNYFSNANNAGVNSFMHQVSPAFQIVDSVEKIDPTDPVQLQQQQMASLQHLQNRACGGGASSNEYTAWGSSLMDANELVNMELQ
In short: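 Binding signal is defined as the fluorescence intensity of each feature in arbitrary units, read on an Axon 4000B scanner. Transcription factors with N-terminal polyhistidine and DsRed fusions came from E. coli BL21-CodonPlus and were purified on Ni–NTA. They were incubated at 200 nM for 1 h at 25 °C on a custom Agilent array that had been made double-stranded with Cy5-dUTP, with 50 µM zinc acetate present, and the array was washed.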

Going from “GAACCCACATCCCACCATGACGCGCAATTACCTCATTATCCGGAGTCACCTAGTGCAG” to “TAACACTACTTGTTGTAAGTAATCTGTTGAGTTTCTTTCTCGGAGTCACCTAGTGCAG”, the binding signal falls from 3720 fluorescence intensity (a.u.) to 3650 fluorescence intensity (a.u.).

Compared with “TCGGCAAGCTGAGACGGCTAGTGAACCTATCAGCCATCAGCGGAGTCACCTAGTGCAG”, “GTGAATACTAAATATGTCAGTATATACGTCAGTCAGTCGTCGGAGTCACCTAGTGCAG” is lower in binding signal: 15900 fluorescence intensity (a.u.) for the first, 4320 fluorescence intensity (a.u.) for the second.

Compared with “CCCATAAATGATGATTGACATGTGGGGCCCCACCACTCTCCGGAGTCACCTAGTGCAG”, “AGAGCAAGGCGCCGGTGGTGCTCATCAAGCCGTCGGCGACCGGAGTCACCTAGTGCAG” is higher in binding signal: 4270 fluorescence intensity (a.u.) for the first, 63100 fluorescence intensity (a.u.) for the second.

Compared with “TTGGATCTAAACACAGCCTGAGTCACTGGATCTGGACTTGCGGAGTCACCTAGTGCAG”, “GGGAGCAGGGCAGCGGCGATGAGGGCGGCGGAGAGGCAGGCGGAGTCACCTAGTGCAG” is higher in binding signal: 4770 fluorescence intensity (a.u.) for the first, 20100 fluorescence intensity (a.u.) for the second.

First: CGTCCGGCGTCGGCGTGGACGGGTCGGCGCGGCGCCCCACCGGAGTCACCTAGTGCAG
Second: ACATGGGGAAAACCAGGGACTAAAACTGTAATCAAACAGTCGGAGTCACCTAGTGCAG
The binding signal of the first is lower: 3650 fluorescence intensity (a.u.) for the first, 29500 fluorescence intensity (a.u.) for the second.

First: TCCGGATAAGCTCATCAGGAGTGCATCTACTACCATCTTCCGGAGTCACCTAGTGCAG
Second: TGGATTACCGGGACAAACAACAATCATCATCACCTCGGGACGGAGTCACCTAGTGCAG
The binding signal of the first is higher: 27700 fluorescence intensity (a.u.) for the first, 3480 fluorescence intensity (a.u.) for the second.

Going from “TAACAGTTTAACACCGGCAGTGACGAGTTAGTTATCTTTTCGGAGTCACCTAGTGCAG” to “AGTGGATGATGATGTGGCATCTTGTTAGTGGATGATGATGCGGAGTCACCTAGTGCAG”, the binding signal rises from 3470 fluorescence intensity (a.u.) to 14700 fluorescence intensity (a.u.).

First: CTTGCCTTTTCTGACTCGCTCTCTCTCTCTCTCTCTATATCGGAGTCACCTAGTGCAG
Second: AAAAGAGTTGCATATTATAAAAGCTTGTTTAATGATAAATCGGAGTCACCTAGTGCAG
The binding signal of the first is lower: 3790 fluorescence intensity (a.u.) for the first, 31400 fluorescence intensity (a.u.) for the second.

Compared with “CGCAGAGCGGCTGCAACTCAATGCCAGGTGGGCCAGGTCACGGAGTCACCTAGTGCAG”, “GAACCTGCACGACCAACTCCTCCTCCACAGCCTCTCTCTCCGGAGTCACCTAGTGCAG” is lower in binding signal: 5260 fluorescence intensity (a.u.) for the first, 3160 fluorescence intensity (a.u.) for the second.

First: ATACCGCGACAATGACATCTGAGTCAATGACTCGTGATAACGGAGTCACCTAGTGCAG
Second: TGCTGTAGCTTAGCTCCACTGTCCCTGACGCACACACTGTCGGAGTCACCTAGTGCAG
The binding signal of the first is higher: 4510 fluorescence intensity (a.u.) for the first, 4360 fluorescence intensity (a.u.) for the second.

Going from “TAGTGGATCGTGACCAATGAAATCTATGCATACGCATGATCGGAGTCACCTAGTGCAG” to “GACGATCGCTCGCCATCTCTCGTCGCCCAACTGGAGTAGTCGGAGTCACCTAGTGCAG”, the binding signal rises from 3180 fluorescence intensity (a.u.) to 21500 fluorescence intensity (a.u.).

Compared with “TGACGGCCCCACCTAGAGGTGGCCCCACACGTCATACTCTCGGAGTCACCTAGTGCAG”, “GAAGGACGGGTTCACCGTCAAGGGCCCCTTCGTGCTGGCGCGGAGTCACCTAGTGCAG” is lower in binding signal: 10600 fluorescence intensity (a.u.) for the first, 4190 fluorescence intensity (a.u.) for the second.

Compared with “CTCCTTCGTCGCCTCTGCGACCGCCACGCGCCACCCATCTCGGAGTCACCTAGTGCAG”, “ACGCGACGTTCGTGTTATATTTACACCGGTCTCGCGTGTCCGGAGTCACCTAGTGCAG” is lower in binding signal: 4900 fluorescence intensity (a.u.) for the first, 3260 fluorescence intensity (a.u.) for the second.

Going from “CGCGTGCCGCTCTTGCACTAGAGATAAGACTACGTGGCACCGGAGTCACCTAGTGCAG” to “GGGCGCTTGGTGGCGGTGGGGCGTCGAGGGCGGGCGGCAGCGGAGTCACCTAGTGCAG”, the binding signal falls from 5580 fluorescence intensity (a.u.) to 5000 fluorescence intensity (a.u.).

Compared with “TTTGCCATTAGCGTACTCACCTAATCTAATCATCGGATTACGGAGTCACCTAGTGCAG”, “TATTGTCAGCCTATGGCCCAGGTCATACTGAAAAGTGGATCGGAGTCACCTAGTGCAG” is lower in binding signal: 48900 fluorescence intensity (a.u.) for the first, 3260 fluorescence intensity (a.u.) for the second.

Going from “CCCAAGTGCTCTGTGACGACGCCGTCGACATGCGGCAATACGGAGTCACCTAGTGCAG” to “AAGTCCATGAATCTGCAGTGCGGATTTGGCCGCATTCTGACGGAGTCACCTAGTGCAG”, the binding signal rises from 3300 fluorescence intensity (a.u.) to 3320 fluorescence intensity (a.u.).

Going from “GCATGTACAGACGTGGAGACACCTCGGATTGAAGCCAGCCCGGAGTCACCTAGTGCAG” to “GAACACTCCAAGTGGCAAAATTACCTCGACACGTGTCGCGCGGAGTCACCTAGTGCAG”, the binding signal rises from 11000 fluorescence intensity (a.u.) to 13400 fluorescence intensity (a.u.).

First: GTCGATTTTCAATCTGACGCCGCTTGTAGATGCATTGACTCGGAGTCACCTAGTGCAG
Second: AGCCCAGTGCCAAGATATTTTGAGACGGACGTCACAAGCCCGGAGTCACCTAGTGCAG
The binding signal of the first is higher: 5660 fluorescence intensity (a.u.) for the first, 3890 fluorescence intensity (a.u.) for the second.

First: TCTGAATCCTAATCTCAGCCACAAGGAGATGTTCATGCCACGGAGTCACCTAGTGCAG
Second: GGGAGGAGGAAGAAGGGATAAGGGATGATGATACGTGGGACGGAGTCACCTAGTGCAG
The binding signal of the first is higher: 15700 fluorescence intensity (a.u.) for the first, 3680 fluorescence intensity (a.u.) for the second.

Compared with “GACCATGGCAATTGCGTGCATGACGACGGAATGGGAAGAGCGGAGTCACCTAGTGCAG”, “TATTTCAGACTTGATGGGTCATCGGCAATATCTGATCGACCGGAGTCACCTAGTGCAG” is lower in binding signal: 4340 fluorescence intensity (a.u.) for the first, 3820 fluorescence intensity (a.u.) for the second.

First: GAGACGTGACGTGACGTTATCTCTCTCTCTCTCTCTCTCTCGGAGTCACCTAGTGCAG
Second: CTACTATACGTCGATGGGGAGGGAGGGAGGGTGGCTGTAGCGGAGTCACCTAGTGCAG
The binding signal of the first is higher: 13500 fluorescence intensity (a.u.) for the first, 3160 fluorescence intensity (a.u.) for the second.

Going from “CCGAAGCGAGAAAGAGCTCGAGAGGGAGAGATCGATCGGCCGGAGTCACCTAGTGCAG” to “ACTAATAATAAATAAAACTTAATTAGGCCCACAATTAGAACGGAGTCACCTAGTGCAG”, the binding signal rises from 3180 fluorescence intensity (a.u.) to 36900 fluorescence intensity (a.u.).

Going from “TGGACTGTAGTAGTGTGGATGCTTACGTCGTAGTGGTGGACGGAGTCACCTAGTGCAG” to “CCAACATATATGGGCCACACGTAAGTACCAATCCCGTTATCGGAGTCACCTAGTGCAG”, the binding signal rises from 3750 fluorescence intensity (a.u.) to 5850 fluorescence intensity (a.u.).

Going from “CGCGTGGCTGCGCAGCTGAGGTTTGACTAGGGTTTTGCTACGGAGTCACCTAGTGCAG” to “CACTGGGCTTCGATTGGGCTATAAGACCAATACTAGTTGCCGGAGTCACCTAGTGCAG”, the binding signal falls from 3550 fluorescence intensity (a.u.) to 3190 fluorescence intensity (a.u.).

First: CAAACTCCAAACGCACTTGACTTCCTCCTCGTCATCGCTGCGGAGTCACCTAGTGCAG
Second: CGGGAACACCACTGGCCGCCGGCGTCACCGCCTCCTCGCCCGGAGTCACCTAGTGCAG
The binding signal of the first is higher: 5610 fluorescence intensity (a.u.) for the first, 3140 fluorescence intensity (a.u.) for the second.

First: TTCTCCGTGTTAATATCACTTACGTCAAGGACCTATTTGTCGGAGTCACCTAGTGCAG
Second: GCACTCACCTCTATGAGCGTATACACACAGATAGGTACATCGGAGTCACCTAGTGCAG
The binding signal of the first is lower: 4620 fluorescence intensity (a.u.) for the first, 33600 fluorescence intensity (a.u.) for the second.

First: GACGACTGAAAACTTGAGCAGTCACAATATTGCTGTCCGACGGAGTCACCTAGTGCAG
Second: ACCACACTACGTGCGCCACGTACATCATCCCGTGCCATGTCGGAGTCACCTAGTGCAG
The binding signal of the first is lower: 3340 fluorescence intensity (a.u.) for the first, 13400 fluorescence intensity (a.u.) for the second.
